The test system of this experiment is Salmonella enterica serovar Typhimurium SL1344. As to the kind of experiment: bacterial growth OD600 after 18 h with compound and polymyxin B; higher = more bacterial growth (less inhibition). Particulars: 50 µM, Mueller-Hinton broth.

This is one part of the list. These are raw signals, not scaled to a control.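 Primary screen: polymyxin B was added at a level permeabilizing Salmonella outer membranes while sparing inner membranes. DMSO wells, both with and without polymyxin B, established maximum growth. Plate-to-plate variation meant each plate was ranked on its own, and the lowest-OD600 compounds were selected as hits.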

For the compound `COc1cccc(CNCc2c(C(=O)N3CCCCCC3)nc3cc(C)ccn23)c1`, the “bacterial growth OD600” value (polymyxin B 1 µg/mL) came out at 0.008.
For `COc1ccc2cc(-c3n[nH]cc3CN3CCC(N4CCSCC4)CC3)ccc2c1`, for the setting “polymyxin B 1 µg/mL”, the “bacterial growth OD600” value amounted to 0.72.
Consider `COc1ccc(F)c(CC2(CCC(=O)NC(Cc3ccccc3)c3ccccc3)CCC(=O)N2)c1` (stereo unspecified), for which the “bacterial growth OD600” value (polymyxin B 0.75 µg/mL) came out at 0.815.
In the case of `Cc1cccc(CN2CCCC(O)(CNCc3ccccc3)C2=O)c1` (stereo unspecified), the “bacterial growth OD600” value (polymyxin B 1 µg/mL) amounted to 0.865.
On the same count and under the same terms, for `COC(=O)c1ccc(CNC(=O)C2CCC(=O)N(Cc3ccccc3OC)C2)cc1` (stereo unspecified) the value was 0.89; for `O=C(CCC1CCCN(Cc2ccc(OCc3ccccc3)cc2)C1)N1CCOCC1` (stereo unspecified), 0.775.
The same measure, in the same setting: for `O=C(/C=C/c1cccs1)N1CCC2(CCCN(CC3CCCCC3)C2)C1` (stereo unspecified) the value was 0.868.
Consider `OC(Cc1ccccc1)c1ccc2c(c1)CN(Cc1cccn1-c1ncccn1)CCO2` (stereo unspecified), for which the “bacterial growth OD600” value (polymyxin B 0.75 µg/mL) turned out to be 0.747.
Same read-out and setting: for `Cc1cc(C)n(Cc2cc(C(=O)NCCc3cscn3)n[nH]2)n1` the value was 0.968.
With `CCN1CC(CN(C)Cc2cn(-c3ccc(C)cc3)nc2-c2cccc(C)c2)CC1=O` (stereo unspecified), where the note is “polymyxin B 1 µg/mL”, the “bacterial growth OD600” value was determined as 0.898.
`CC1CCN(C(=O)c2cc(CN3CCC(Cc4ccccc4)CC3)on2)CC1`: the “bacterial growth OD600” value (polymyxin B 1 µg/mL) amounted to 1.05.
On the same count and under the same terms, as for `CCS(=O)(=O)c1ncc(CN2CCN(c3ccccc3)CC2C)n1CCOC` (stereo unspecified), the figure is 1.23.
Still for that read-out and setting: as for `CN(CC1CCOCC1)C(=O)c1cn(C(c2ccccc2)c2ccccc2)nn1`, the figure is 0.797; as for `CN(C)S(=O)(=O)NCc1cccnc1Oc1ccc(F)cc1F`, 0.88.
Still for that read-out and setting: as for `Cn1ccnc1C(=O)C1CCCN(Cc2nc(-c3ccc4c(c3)OCO4)no2)C1` (stereo unspecified), the figure is 0.9.
In the case of `COc1ccccc1OCc1cc(C(=O)N2CCCCC2CO)n[nH]1` (stereo unspecified), the “bacterial growth OD600” value (polymyxin B 0.75 µg/mL) was determined as 0.84.
Same read-out and setting: as for `COc1ccccc1CN1CCC2(CC1)c1ccccc1[C@@H](NC(=O)COc1ccccc1)[C@@H]2OC`, the figure is 0.849.
On to `COc1cc(CN2CCCC(C(=O)c3cc(C)c(OC)c(C)c3)C2)cc(OC)c1OC` (stereo unspecified), for which, for the setting “polymyxin B 1 µg/mL”, the “bacterial growth OD600” value was 0.877.
With `CC(=O)N1CCN(c2ncccc2CNCc2c(F)cccc2Cl)CC1`, the “bacterial growth OD600” value (polymyxin B 0.75 µg/mL) stood at 0.851.
Take `CN(C)c1ncc(CN2CCCC(C(=O)Nc3ccc(-c4ccco4)cc3)C2)s1` (stereo unspecified): the “bacterial growth OD600” value (polymyxin B 1 µg/mL) turned out to be 0.957.
Turning to `Cn1cc(CCC(=O)N2CCCC(CCc3cccc(F)c3)C2)cn1` (stereo unspecified), the “bacterial growth OD600” value (polymyxin B 0.75 µg/mL) came to 0.01.
As for `CCN(CC)C(=O)c1sc2ncnc(NCCCOC)c2c1C`, for the setting “polymyxin B 0.75 µg/mL”, the “bacterial growth OD600” value was found to be 0.846.
Same read-out and setting: for `COc1cc(CN2CCSCC2)ccc1OCC(O)CN1CCCCCC1` (stereo unspecified) the value was 0.97.
On the same count and under the same terms, for `CCC(=O)C1CCCN(C(=O)c2cc(NC(=O)c3ccccc3)cc3ncn(C4CCCC4)c23)C1` (stereo unspecified) the value was 0.811; for `CCN(Cc1ccccc1)Cc1nc(-c2cccc(OC)c2OC)oc1C`, 0.775; for `COc1ccc2c(C)nc(N3CCCC(C(=O)NCCc4ccc(OC)c(OC)c4)C3)nc2c1` (stereo unspecified), 0.889.
For `CC(c1ccon1)N(C)C(=O)c1coc(COc2cccc(C(F)(F)F)c2)n1` (stereo unspecified), the “bacterial growth OD600” value (polymyxin B 1 µg/mL) is 0.858.
Same read-out and setting: for `O=C(Cc1ccsc1)N1CCC(C2CCN(c3ncccn3)CC2)C1` (stereo unspecified) the value was 0.977.
`O=C(CCCn1cncn1)N1CCOC(Cc2ccccc2)C1` (stereo unspecified): where the note is “polymyxin B 0.75 µg/mL”, the “bacterial growth OD600” value amounted to 0.923.
The same measure, in the same setting: for `Cc1oc(-c2ccc(NC(=O)Cc3ccccc3)cc2)nc1CNC(=O)CCc1ccccc1Cl` the value was 0.853.
As to `Cc1ccc(Oc2ncccc2CNC(=O)C2CCOCC2)cn1`, the “bacterial growth OD600” value (polymyxin B 1 µg/mL) is 1.03.

(Values after the supplement of paper PMC12889115.)
